In patent US5543406A, “Inhibitors of 5-α-testosterone reductase” (priority 1994, dated 1996):
At least one structure is not confirmed: it was looked up by name or label, or the drawing left a doubt.

Target: Steroid 5-α-Reductase
Experiment: Steroid 5-α-reductase in vitro assay, rat prostate microsomes
Type: biochemical
Conditions: rat prostatic microsomes; 100 nM [3H]-testosterone, 1 mM NADPH, 60 minutes at 37° C.; read-out: ID50 Rat

C[C@]12CC[C@H]3[C@@H](CNC4=CC(=O)C=C[C@@]43C)[C@@H]1CC[C@@H]2C(=O)NC12CC3CC(CC(C3)C1)C2 [Compound 30, 17β-N-1-Adamantylcarbamoyl-6-azaandrost-1,4-dien-3-one]
IC50: 10 to 100 nM
